Source: PMC3814876
These are yes or no findings as the source states them, for the method shown. For some assays here: Binding seen in cells or lysates may run through a third protein. Some entries that bind do so weakly or less than the wild type. For some assays here: Sequences can lack the tags named with a protein.

Amino acid sequences for entries named in this document (tags omitted).
UniProt Q13158: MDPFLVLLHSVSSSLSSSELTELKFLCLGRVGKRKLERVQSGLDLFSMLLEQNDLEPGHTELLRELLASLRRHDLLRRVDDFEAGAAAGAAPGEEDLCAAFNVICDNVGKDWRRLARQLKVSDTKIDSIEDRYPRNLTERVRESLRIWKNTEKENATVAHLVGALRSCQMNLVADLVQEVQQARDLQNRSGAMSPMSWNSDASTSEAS
UniProt Q13546: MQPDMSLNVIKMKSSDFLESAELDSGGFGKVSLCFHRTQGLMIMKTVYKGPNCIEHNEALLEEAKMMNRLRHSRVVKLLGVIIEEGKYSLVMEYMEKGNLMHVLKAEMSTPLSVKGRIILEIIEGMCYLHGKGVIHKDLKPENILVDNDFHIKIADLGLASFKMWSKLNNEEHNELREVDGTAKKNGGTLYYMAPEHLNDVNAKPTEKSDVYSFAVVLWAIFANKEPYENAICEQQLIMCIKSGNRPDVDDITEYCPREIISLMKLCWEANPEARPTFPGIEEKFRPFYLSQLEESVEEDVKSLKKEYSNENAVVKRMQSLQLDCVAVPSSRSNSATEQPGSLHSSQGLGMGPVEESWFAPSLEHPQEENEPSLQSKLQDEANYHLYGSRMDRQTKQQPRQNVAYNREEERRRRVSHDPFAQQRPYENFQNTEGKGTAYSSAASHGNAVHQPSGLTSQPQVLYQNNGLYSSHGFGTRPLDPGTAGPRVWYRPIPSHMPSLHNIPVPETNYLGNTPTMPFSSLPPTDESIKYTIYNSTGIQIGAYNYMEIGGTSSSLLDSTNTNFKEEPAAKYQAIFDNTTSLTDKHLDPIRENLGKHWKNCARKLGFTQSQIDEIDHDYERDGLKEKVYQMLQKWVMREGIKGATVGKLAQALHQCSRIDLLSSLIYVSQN

Legend:
IRF7 = molecular target: T1, IRF7 (UniProt Q92985); test: co-IP; expression vectors transfected into 293T cells; lysis in NP40 IP buffer (50 mM Tris pH 8.0, 150 mM NaCl, 0.5% NP-40) or RIPA; antibody overnight at 4°C, Protein G 3 hours; immunoblot for c-Myc or FLAG; in Figure 6G-I with or without co-expressed DDX24 or DDX24 siRNA
T1 sequence: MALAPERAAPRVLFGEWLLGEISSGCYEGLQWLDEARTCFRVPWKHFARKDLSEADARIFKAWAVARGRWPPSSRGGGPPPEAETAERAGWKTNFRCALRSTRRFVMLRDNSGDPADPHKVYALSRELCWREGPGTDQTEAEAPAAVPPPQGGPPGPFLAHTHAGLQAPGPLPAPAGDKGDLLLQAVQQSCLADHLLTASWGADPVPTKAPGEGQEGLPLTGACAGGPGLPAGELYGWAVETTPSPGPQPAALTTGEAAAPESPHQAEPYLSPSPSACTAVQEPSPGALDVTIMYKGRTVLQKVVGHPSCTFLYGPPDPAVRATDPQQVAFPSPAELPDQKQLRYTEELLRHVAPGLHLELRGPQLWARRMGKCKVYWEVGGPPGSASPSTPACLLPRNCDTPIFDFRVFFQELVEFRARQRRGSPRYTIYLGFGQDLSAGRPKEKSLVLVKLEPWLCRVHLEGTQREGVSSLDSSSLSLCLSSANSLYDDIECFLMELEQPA

pGBT9-FADD (human) = pGBT9-FADD (human) (UniProt Q13158); test: two-hybrid; Matchmaker Gal4 system; FADD as bait in pGBT9, DDX24 as prey in pGADT7; colonies seeded on SD-His/-Leu/-Trp plates
FLAG-FADD = FLAG-FADD (UniProt Q13158); test: co-IP; expression vectors transfected into 293T cells; lysis in NP40 IP buffer (50 mM Tris pH 8.0, 150 mM NaCl, 0.5% NP-40) or RIPA; antibody overnight at 4°C, Protein G 3 hours; immunoblot for c-Myc or FLAG; in Figure 6G-I with or without co-expressed DDX24 or DDX24 siRNA
[1] = molecular target: endogenous human FADD (HUVEC) (human (endogenous in HUVEC)) (UniProt Q13158); test: co-IP; endogenous proteins; HUVEC lysate immunoprecipitated with anti-FADD or mouse IgG serum, immunoblot with anti-DDX24 or anti-FADD
[2] = molecular target: T2, endogenous mouse FADD (MEF) (mouse (endogenous in MEF)) (UniProt Q61160); test: co-IP; endogenous IP of DDX24 and FADD in MEF, with or without 6 hours poly I:C treatment
T2 sequence: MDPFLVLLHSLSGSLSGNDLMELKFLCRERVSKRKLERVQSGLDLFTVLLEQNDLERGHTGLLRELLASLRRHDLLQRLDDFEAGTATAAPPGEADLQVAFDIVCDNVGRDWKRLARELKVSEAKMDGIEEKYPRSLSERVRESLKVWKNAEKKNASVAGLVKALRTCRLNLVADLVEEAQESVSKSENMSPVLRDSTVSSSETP

c-Myc-RIP1 = c-Myc-RIP1 (UniProt Q13546); test: co-IP; expression vectors transfected into 293T cells; lysis in NP40 IP buffer (50 mM Tris pH 8.0, 150 mM NaCl, 0.5% NP-40) or RIPA; antibody overnight at 4°C, Protein G 3 hours; immunoblot for c-Myc or FLAG; in Figure 6G-I with or without co-expressed DDX24 or DDX24 siRNA

Molecule: c-Myc-RIP1 (from UniProt Q13546 1-671)
- binding (IRF7): binds

B1: pGADT7-DDX24 (protein, UniProt Q9GZR7 1-859)
chain: MKLKDTKSRPKQSSCGKFQTKGIKVVGKWKEVKIDPNMFADGQMDDLVCFEELTDYQLVSPAKNPSSLFSKEAPKRKAQAVSEEEEEEEGKSSSPKKKIKLKKSKNVATEGTSTQKEFEVKDPELEAQGDDMVCDDPEAGEMTSENLVQTAPKKKKNKGKKGLEPSQSTAAKVPKKAKTWIPEVHDQKADVSAWKDLFVPRPVLRALSFLGFSAPTPIQALTLAPAIRDKLDILGAAETGSGKTLAFAIPMIHAVLQWQKRNAAPPPSNTEAPPGETRTEAGAETRSPGKAEAESDALPDDTVIESEALPSDIAAEARAKTGGTVSDQALLFGDDDAGEGPSSLIREKPVPKQNENEEENLDKEQTGNLKQELDDKSATCKAYPKRPLLGLVLTPTRELAVQVKQHIDAVARFTGIKTAILVGGMSTQKQQRMLNRRPEIVVATPGRLWELIKEKHYHLRNLRQLRCLVVDEADRMVEKGHFAELSQLLEMLNDSQYNPKRQTLVFSATLTLVHQAPARILHKKHTKKMDKTAKLDLLMQKIGMRGKPKVIDLTRNEATVETLTETKIHCETDEKDFYLYYFLMQYPGRSLVFANSISCIKRLSGLLKVLDIMPLTLHACMHQKQRLRNLEQFARLEDCVLLATDVAARGLDIPKVQHVIHYQVPRTSEIYVHRSGRTARATNEGLSLMLIGPEDVINFKKIYKTLKKDEDIPLFPVQTKYMDVVKERIRLARQIEKSEYRNFQACLHNSWIEQAAAALEIELEEDMYKGGKADQQEERRRQKQMKVLKKELRHLLSQPLFTESQKTKYPTQSGKPPLLVSAPSKSESALSCLSKQKKKKTKKPKEPQPEQPQPSTSAN
- binding (pGBT9-FADD (human)): binds

B2: c-Myc-DDX24 (protein, UniProt Q9GZR7 1-859)
chain: B1 chain
- binding (FLAG-FADD): binds

B3: endogenous human DDX24 (HUVEC) (protein, UniProt Q9GZR7 1-859)
chain: B1 chain
- binding [1]: binds

B4: c-Myc-DDX24-N (domain or fragment, UniProt Q9GZR7 1-577)
chain: MKLKDTKSRPKQSSCGKFQTKGIKVVGKWKEVKIDPNMFADGQMDDLVCFEELTDYQLVSPAKNPSSLFSKEAPKRKAQAVSEEEEEEEGKSSSPKKKIKLKKSKNVATEGTSTQKEFEVKDPELEAQGDDMVCDDPEAGEMTSENLVQTAPKKKKNKGKKGLEPSQSTAAKVPKKAKTWIPEVHDQKADVSAWKDLFVPRPVLRALSFLGFSAPTPIQALTLAPAIRDKLDILGAAETGSGKTLAFAIPMIHAVLQWQKRNAAPPPSNTEAPPGETRTEAGAETRSPGKAEAESDALPDDTVIESEALPSDIAAEARAKTGGTVSDQALLFGDDDAGEGPSSLIREKPVPKQNENEEENLDKEQTGNLKQELDDKSATCKAYPKRPLLGLVLTPTRELAVQVKQHIDAVARFTGIKTAILVGGMSTQKQQRMLNRRPEIVVATPGRLWELIKEKHYHLRNLRQLRCLVVDEADRMVEKGHFAELSQLLEMLNDSQYNPKRQTLVFSATLTLVHQAPARILHKKHTKKMDKTAKLDLLMQKIGMRGKPKVIDLTRNEATVETLTETKIHCETDEKDF
- binding (FLAG-FADD): binds

B5: endogenous mouse DDX24 (MEF) (protein, UniProt Q9ESV0 1-857)
chain: MKVKETNSKPKLASRGTFQRKGIKIVGKWKQVTIDPNLFADGQMDDLVCFEELTDYRLVKNPSRLFSSEETKKRKAQAVSEEEEEEEGQSSSPKKKIKLKKQRDAARAAEGAAAQNEYEVKASEPEAQGEVTACSDQKVGGAKSESLAQAAPRKKKNKGKKKLDTFQSTSPKLPKKSKKTWMAEVHDQKADVSAWRDLFVPKAVLRALSFLGFSAPTPIQALTLAPAIRDKLDILGAAETGSGKTLAFAIPMIHSVLQWHKMKAPPIPRSTGMPPREMRFGATAHLGSPCKDRTESGVLPEEARIETEAQPSDSGVQATPETSASASAQTLLVCDDDAGEGPSSLEEKPVPKQNEDGEEKFDAEQAGKLKQELCDQIAIYKVHPRRPLLGLVLTPTRELAIQVRQHIDAVAKFTGINTAILVGGMSTQKQQRMLNRHPEIVIATPGRLWELVKEKHPHLSNLRQLRCLVIDEADRMVEKGHFAELSQLLEMLNDSQYNPSRQTLVFSATLTLVHQAPARILHKKHVKKMDKTDKLDLLMQKVGMRGKPKVIDLTRNEGTVETLTETKIHCETDEKDLYLYYFLMQYPGRSLVFANSISCIKRLSGLLKVLDVMPLTLHACMHQKQRLRNLEQFARLQDCVLLATDVAARGLDIPKVQHVIHYQVPRTSEIYIHRSGRTARAASEGLSLMLIGPEDVINFKKIYKTLQKDEDIPLFPVQSKYMDVVKERIRLARQIEKAEYRNFQACLHNSWIEQAAAALEIELEEEMYKGGKADQQEERRRQKQMKMLKQELRHLLSQPLFQENLKTRYPTQSGRPPQPVLASRNIESALSCLSRQKRRRKKPKEPRAPPQPGSSTS
- binding [2]: binds

B6: FLAG-DDX24 (protein, UniProt Q9GZR7 1-859)
chain: B1 chain
- binding (c-Myc-RIP1): binds

B7: IRF7 (protein, UniProt Q92985 1-503)
chain: T1 sequence
- binding (c-Myc-RIP1): binds
